# In US20240108591A1, “OR2L13 AGONISTS TO TREAT CVD WITH DY[…] ACTIVATION” (The Cleveland Clinic Foundation, priority 2022, published 2024):
# At least one compound was matched to its structure with a doubt left.
# Tested on: human platelets
# Assay: cAMP generation in human platelets
# Format: cell-based
# Details: 10 μM, 5 minutes, positive control for adenylyl cyclase activity
# Description: FIG. 5. A conserved olfactory receptor signal transduction pathway in healthy platelets. A. Proposed platelet OR2L13 signal transduction. Levo-carvone (L-Carvone) binds to OR2L13 on platelets to generate cAMP through adenylyl cyclase activation, and cAMP changes the cytosolic concentration of calcium (Ca 2+) directly and chloride conductance (C1^−) while inhibiting platelet reactivity through known, well-described mechanisms involving protein kinase (PKA). […] C. […] Data are mean±SEM (n=4, MQAE fluorescence). *P=0.0134 (−) carvone vs control by student's t-test. D. Carvone stimulation (300 μM) of healthy platelets promotes local brief calcium transients 20-80% above baseline is sustained compared with thrombin which attenuates over time (n=5 human platelets, Fura-2 fluorescence). MQAE=-[ethoxycarbonylmethyl]-6-methoxy-quinoliniumbromide. Arrowhead=drug addition.
# ORs and downstream anoctamin proteins are generally expressed in afferent olfactory neurons (23). ORs are GPCRs positively linked to AC to increase cAMP (24), triggering […] as a downstream calcium-sensitive chloride channel (25). If this signal transduction pathway is conserved in platelets, OR2L13 activation should generate cAMP in platelets coincident with changes in platelet Cl^−- and Ca^2+ flux (schematic, FIG. 5A). […]
compound,measurement,value
"C=C[C@@]1(C)CC(=O)[C@]2(O)[C@@]3(C)[C@@H](O)CCC(C)(C)[C@@H]3[C@H](O)[C@H](OC(C)=O)[C@@]2(C)O1 [forskolin, reference compound]",cAMP generation in platelets,generates cAMP
